In patent US20020132328A1:
These are yes or no findings as the source states them, for the method shown. Some entries that bind do so weakly or less than the wild type.

The chains behind the UniProt entries cited, without tags or fusion partners. Where a name states a change or a piece, a line headed by the entry shows the natural chain unless it says otherwise.
UniProt O02776: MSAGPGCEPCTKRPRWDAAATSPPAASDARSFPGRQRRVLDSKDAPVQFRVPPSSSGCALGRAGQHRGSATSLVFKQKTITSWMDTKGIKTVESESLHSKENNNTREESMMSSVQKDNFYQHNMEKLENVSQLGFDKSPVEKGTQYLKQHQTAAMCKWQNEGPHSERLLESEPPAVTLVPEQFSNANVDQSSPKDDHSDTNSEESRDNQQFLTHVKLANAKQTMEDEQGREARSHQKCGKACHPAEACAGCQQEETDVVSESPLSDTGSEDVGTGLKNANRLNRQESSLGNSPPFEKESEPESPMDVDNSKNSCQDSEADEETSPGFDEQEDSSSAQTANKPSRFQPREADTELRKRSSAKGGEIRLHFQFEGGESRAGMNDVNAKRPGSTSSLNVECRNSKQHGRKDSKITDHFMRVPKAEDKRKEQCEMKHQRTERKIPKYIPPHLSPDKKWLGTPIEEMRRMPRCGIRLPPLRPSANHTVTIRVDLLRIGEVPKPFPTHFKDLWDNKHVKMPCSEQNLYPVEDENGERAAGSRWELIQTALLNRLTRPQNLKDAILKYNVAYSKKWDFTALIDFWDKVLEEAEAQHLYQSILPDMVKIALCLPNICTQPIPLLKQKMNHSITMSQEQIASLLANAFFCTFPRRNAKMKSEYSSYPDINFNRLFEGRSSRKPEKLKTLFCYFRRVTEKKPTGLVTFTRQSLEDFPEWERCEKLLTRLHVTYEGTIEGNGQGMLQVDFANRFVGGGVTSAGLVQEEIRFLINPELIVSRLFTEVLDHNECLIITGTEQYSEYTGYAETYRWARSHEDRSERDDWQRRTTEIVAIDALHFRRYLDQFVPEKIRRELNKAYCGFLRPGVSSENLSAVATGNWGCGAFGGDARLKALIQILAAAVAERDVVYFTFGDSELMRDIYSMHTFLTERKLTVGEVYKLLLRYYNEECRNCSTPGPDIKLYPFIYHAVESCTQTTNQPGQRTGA

Target: expressed PARG protein (bovine) (bovine) (UniProt O02776)
Assay: SDS-PAGE, self-association

For “expressed PARG protein (bovine) (from UniProt O02776 1-977) (enzyme)”, the binding was “binds”.
